Reference: patent publication US4758312A, “Method for in situ corrosion detection using electrochemically active compounds” (Nalco Chemical Company, priority 1987, dated 1988)

What was measured:
[1] = Redox type indicators screened for detection of iron corrosion in water (Example 1); details: 0.1 percent indicator, one percent sodium chloride, room temperature
[2] = Commercial tetrazolium compounds, detection of iron corrosion (Example 4); details: 0.1 percent solution, one percent sodium chloride

Row | Structure (SMILES) | Final color [1] | Initial color [1] | Initial color [2] | Final color ([2]; precipitate on the metal surface)
1 | O=c1ccc2[n+]([O-])c3ccc(O)cc3oc-2c1 [Resazurin, resazurin] | red | blue | – | –
2 | Cc1cc2nc3ccc(N(C)C)cc3nc2cc1N [Neutral Red, neutral red] | yellow | red | – | –
3 | c1ccc(-c2nn(-c3ccccc3)[n+](-c3ccc(-c4ccc(-[n+]5nc(-c6ccccc6)nn5-c5ccccc5)cc4)cc3)n2)cc1 [Compound 8 (Table 6), 2,2',5,5'-tetraphenyl-3,3'(p-diphenylene)ditetrazolium chloride] | – | – | colorless | blue
